Values from PubChem BioAssay AID1259298 (Sanger Institute, 2017)

Aim: 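Kinases whose loss strengthens killing by BYL719, cetuximab or trametinib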 (primary screen)
Cells: HT55 human colorectal cancer cell line
Reagents: siRNA pool against human genes
Conditions: anchor drug BYL719 1 µM, cetuximab 5 µg/ml or trametinib 10 nM, or DMSO vehicle alone
Detection: 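Replicate-averaged viability versus wells of non-targeting pool; knock-down-only robust z-score; per-drug synergy score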
Direction: robust z-score, knock-down alone: higher = more cells remaining; low means essential gene; viability vs control pool, no drug: higher = more viable cells; synergy score with BYL719 and synergy score with cetuximab and synergy score with trametinib: higher = stronger synthetic lethality with the drug
Call rule: 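Essential when the robust z-score for knock-down alone with DMSO is below -3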
Meaning of the calls: active = essential (knock-down alone); inactive = no change alone
This is an unselected part of 794 deposited reagents. 20 of them (2.5%) count as active. 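Calls rest only on the knock-down-alone score; drug synergy scores played no part in them.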 No viability above 1 is reported: the scale is capped. Not stated in the record: the amount of reagent, the time to read-out.

Gene,"robust z-score, knock-down alone","viability vs control pool, no drug (fraction)",synergy score with BYL719,synergy score with cetuximab,synergy score with trametinib,Call
PLK3,0.58,1,-0.272,-0.21,-0.0551,inactive
DYRK4,-2.57,0.754,-0.128,0.0264,0.0269,inactive
PIK3CD,0.58,1,-0.272,-0.0805,-0.0335,inactive
CRKL,0.58,1,-0.272,-0.204,-0.0433,inactive
CALM3,-0.859,0.887,-0.354,-0.145,-0.0286,inactive
TAOK3,0.58,1,-0.167,0.0393,0.0601,inactive
NUP98,-3.61,0.672,-0.0507,-0.121,-0.178,active
ACO1,-0.301,0.931,0.109,0.000951,0.071,inactive
RUNX1,-1.09,0.869,-0.0916,-0.0132,-0.114,inactive
AMER1,0.488,0.993,-0.184,-0.0358,-0.0958,inactive
DCLK2,-0.772,0.894,-0.176,-0.0819,-0.0616,inactive
PRKCQ,-0.589,0.909,-0.178,-0.0614,0.0866,inactive
PFKFB3,-1.53,0.835,-0.0807,0.0322,0.145,inactive
SYK,-1.1,0.869,-0.104,-0.18,-0.00131,inactive
IRAK4,-0.781,0.894,-0.261,-0.295,-0.0289,inactive
PRAG1,0.58,1,-0.128,-0.137,-0.038,inactive
EPHA7,-2.88,0.73,-0.256,-0.236,0.00272,inactive
MAP3K13,0.58,1,-0.152,-0.0191,0.127,inactive
PI4K2B,0.58,1,-0.17,-0.211,0.0395,inactive
DLG1,0.58,1,-0.163,-0.00235,-0.00707,inactive
